In patent US20120003191A1, “VALPROIC ACID, DERIVATIVES, ANALOGUES, AND COMPOSITIONS INCLUDING SAME AND METHODS FOR THEIR THERAPEUTIC USE” (priority 2009, published 2012):
At least one structure is not confirmed: it was looked up by name or label, or the drawing left a doubt.

Experiments:
Akt = assay: Western blotting of activated and total Akt in α7+/− myotubes; format: cell-based, mouse; conditions: 100 nM Wortmannin with 2 mM VPA, 72 hours
Protocol: α7^+/− myogenic cells were cultured on 1% gelatin-coated plastic plates in Ham's F-10 growth medium (20% FBS, 0.5% chick embryo extract, 5 ng/ml bFGF, 2 mM glutamine, 100 U/ml penicillin and 100 μg/ml streptomycin). After six passages, cells were grown in DMEM containing 20% FBS, 0.5% chick embryo extract, 2 mM glutamine, 100 U/ml penicillin and 100 μg/ml streptomycin. Differentiation was induced by switching the medium to DMEM containing 2% horse serum and antibiotics when cells attained 90% confluence. […] Wortmannin was used at 100 nM and added fresh every 24 hours. […]
Cell lysates of differentiating cells on 60 mm dishes were prepared as follows: the cells were washed twice with PBS and 200 μl Triton X-100 lysis buffer (2% Triton X-100, 20 mM Tris-Cl, pH 7.4, 150 mM NaCl, 1 mM EDTA, 1 mM EGTA, 2.5 mM NaPPi, 1 mM β-glycerophosphate, 1 mM sodium vanadate, 1:200 Protease Inhibitor Cocktail (EMD Chemicals, San Diego, Calif.) and 1 mM PMSF) were added. […] Protein concentrations were determined by the Bradford assay. […] The supernatants were collected and protein concentrations were determined spectrophotometrically at OD260 and OD280. […] ImageQuant analysis software (Molecular Dynamics, Sunnyvale, Calif.) was used to quantify band intensity.

α7+/− myotubes = assay: Quantification of myotube hypertrophy; format: cell-based, mouse
Protocol: α7^+/− myogenic cells were cultured on 1% gelatin-coated plastic plates in Ham's F-10 growth medium (20% FBS, 0.5% chick embryo extract, 5 ng/ml bFGF, 2 mM glutamine, 100 U/ml penicillin and 100 μg/ml streptomycin). After six passages, cells were grown in DMEM containing 20% FBS, 0.5% chick embryo extract, 2 mM glutamine, 100 U/ml penicillin and 100 μg/ml streptomycin. Differentiation was induced by switching the medium to DMEM containing 2% horse serum and antibiotics when cells attained 90% confluence. After 48 hours of differentiation, 2 mM VPA was added and supplied fresh every 24 hours. Wortmannin was used at 100 nM and added fresh every 24 hours.
[…] The cells were stained with anti-myosin heavy chain antibody (MF-20, 1:3 in 1% BSA in PBS) and FITC-conjugated donkey anti-mouse secondary antibody (1:200 in 1% BSA in PBS) for 1 hour each, and mounted in Vectashield with DAPI (Vector Laboratories, Burlingame, Calif.). Micrographs of ten fields were taken for VPA-treated and control myotubes using a Leica DMRXA2 microscope (Leica Microsystems, Germany), AxioCam digital camera (Zeiss Inc., Thorwood, N.Y.) and Openlab software (Improvision, Lexington, Mass.). Areas of myosin heavy chain positive myotubes were measured using Openlab software and the numbers of nuclei in each myotube were counted. […]

With `COC[C@H]1OC(=O)c2coc3c2[C@@]1(C)C1=C(C3=O)[C@@H]2CCC(=O)[C@@]2(C)C[C@H]1OC(C)=O` [Wortmannin] the “effect of Wortmannin on activation of Akt by VPA” value (Akt) was “attenuated the activation of Akt”, the “effect of Wortmannin on myotube hypertrophy promoted by VPA” value (α7+/− myotubes; 100 nM Wortmannin with 2 mM VPA, 72 hours) was “attenuated the myotube hypertrophy” and the “effect of Wortmannin on hypertrophy after 1 hour VPA exposure” value (α7+/− myotubes; 100 nM Wortmannin with 30 mM VPA for 1 hour) was “inhibited this effect”.
